# Some of the results follow.
# Biological target: T1, OsSMF1 (Oryza sativa, UniProt Q6ZLB0 1-436)
# T1 sequence: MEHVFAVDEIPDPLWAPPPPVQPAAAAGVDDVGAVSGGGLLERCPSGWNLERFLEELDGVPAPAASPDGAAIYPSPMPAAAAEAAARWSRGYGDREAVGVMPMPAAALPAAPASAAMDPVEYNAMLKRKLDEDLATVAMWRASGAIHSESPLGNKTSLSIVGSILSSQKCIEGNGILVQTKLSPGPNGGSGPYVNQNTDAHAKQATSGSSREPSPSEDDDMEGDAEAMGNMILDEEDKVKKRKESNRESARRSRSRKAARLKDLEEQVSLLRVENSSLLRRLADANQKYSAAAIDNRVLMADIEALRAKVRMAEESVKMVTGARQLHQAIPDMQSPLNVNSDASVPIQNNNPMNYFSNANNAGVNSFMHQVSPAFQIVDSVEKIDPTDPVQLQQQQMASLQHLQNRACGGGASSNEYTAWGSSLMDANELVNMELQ
# Assay: protein-binding microarray (RPBM); PBS, 2% BSA, 51.3 ng/ul salmon testes DNA, 50 uM zinc acetate, 200 nM TF, 25 C, 1 h; high values mean tight binding
# Conditions: protein: recombinant; tags: N-terminal polyhistidine and DsRed monomer fusion (pET32a); chain copies: 2; label: CyDye5-dUTP incorporated in the synthesized complementary strand; 3' TTTTT single-stranded linker to array surface; dsDNA, one strand shown
# Outline: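 The binding signal is fluorescence intensity per feature, in arbitrary units, read on an Axon 4000B scanner. Polyhistidine- and DsRed-tagged transcription factors (N-terminal fusions) from E. coli BL21-CodonPlus were purified on Ni–NTA and applied at 200 nM for 1 h at 25 °C to a double-stranded, BSA-blocked custom Agilent array in buffer with 50 µM zinc acetate.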
row,Sequence,binding signal
1,CTTTGTATCTGACCTACTGTTGTTCTGACCAGTCTTGGCCCGGAGTCACCTAGTGCAG,3720 fluorescence intensity (a.u.)
2,ACCATTGGCCTCGCCGCTCACGCGCACCAGCGTCCCACACCGGAGTCACCTAGTGCAG,31000 fluorescence intensity (a.u.)
3,ACGTCCACCTCCGCATCGGCCCCTACGTCTGCGCCGAGTGCGGAGTCACCTAGTGCAG,3980 fluorescence intensity (a.u.)
4,TAAATGCTACAGTAACCCACATGTGCTAATGATGGATTAACGGAGTCACCTAGTGCAG,29600 fluorescence intensity (a.u.)
5,AACGTCGTCGCAGGTGTTTGCTGCGCGCGACGTAGCCATCCGGAGTCACCTAGTGCAG,32700 fluorescence intensity (a.u.)
6,AACGGTGCCTTCTGTTGCTGACCCGATCTGGCGACGCAACCGGAGTCACCTAGTGCAG,3850 fluorescence intensity (a.u.)
7,CATGGTGATGATGGCGGCGGGCGTCCGTCAGCGCCCGCACCGGAGTCACCTAGTGCAG,5860 fluorescence intensity (a.u.)
8,TTTAACGGCGGTTGACTAACGGTTGACTAACGTCGATTGCCGGAGTCACCTAGTGCAG,3380 fluorescence intensity (a.u.)
9,CCTCCTGCTCAGAGGCAGTTCGGTGACGAGCGGGTTGGAGCGGAGTCACCTAGTGCAG,24400 fluorescence intensity (a.u.)
10,TGTGATACTGACATGTGGGGCCACGTGGGTCCCATAATTTCGGAGTCACCTAGTGCAG,7110 fluorescence intensity (a.u.)
11,TTTATTTAGTTTGTCAGACTAACTGGTATTGACACGACTGCGGAGTCACCTAGTGCAG,4840 fluorescence intensity (a.u.)
12,GCGACGCGAGCGAAGATTTTGATTTTGACCCGCCTCCAACCGGAGTCACCTAGTGCAG,19500 fluorescence intensity (a.u.)
13,TCACTGGCCTCTACATCCTCCAACCACTCCGTCGGCTTCCCGGAGTCACCTAGTGCAG,19900 fluorescence intensity (a.u.)
14,TTGTACTAATAATAATACAATAAACTAACAATTCAGCGATCGGAGTCACCTAGTGCAG,3560 fluorescence intensity (a.u.)
15,TTGCCACTCGTTATCTATGACATATGGGTCCTTATGTGTCCGGAGTCACCTAGTGCAG,3390 fluorescence intensity (a.u.)
16,ATAGAAATGGAGGATGTGGCGGCATCATTGCGCCATGTACCGGAGTCACCTAGTGCAG,3270 fluorescence intensity (a.u.)
17,GCCGCCATCTCCCATGGCGACGACGTGGACCAACGCCTAACGGAGTCACCTAGTGCAG,6420 fluorescence intensity (a.u.)
18,TCAATAGTACTTTAAACGTGCCGTGTATGTTTGTCTATTTCGGAGTCACCTAGTGCAG,4020 fluorescence intensity (a.u.)
19,TCCCGCGCCGGCCGCCGTCACCTCACGCAGGCCCTGTATGCGGAGTCACCTAGTGCAG,3270 fluorescence intensity (a.u.)
20,GCAGAGGCGGCGAGGCTCGGCTTCTTCTCGAACGGCGCCGCGGAGTCACCTAGTGCAG,27600 fluorescence intensity (a.u.)
21,TCTCGTCTCCGTCGCCGCCGCCTTCTCCAAATCCCCTTCGCGGAGTCACCTAGTGCAG,3820 fluorescence intensity (a.u.)

row,Sequence,binding signal
1,CGGAGGGATTCGATTTGGAAGGAATTGGATTCGGAGTTGACGGAGTCACCTAGTGCAG,33200 fluorescence intensity (a.u.)
2,ATGTACGCGTCACTAAATTTTGTTGCTCCCTGTCGTCACTCGGAGTCACCTAGTGCAG,9210 fluorescence intensity (a.u.)
3,AGGAAGGGAGAGGCCGGCCTGCTGACGTGGCATCATGACACGGAGTCACCTAGTGCAG,19900 fluorescence intensity (a.u.)
4,TCCTCGCCAAGCAGCATGGAGGAGAGCCACGCCTTCACCACGGAGTCACCTAGTGCAG,3810 fluorescence intensity (a.u.)
5,ACGGCCCAGATAAAAGGATGGGACATGATAACCCGGTCTACGGAGTCACCTAGTGCAG,4060 fluorescence intensity (a.u.)
6,GACGCTGGAGTTCACGCCGACGTGGATCGTGGCGGCGGTGCGGAGTCACCTAGTGCAG,7560 fluorescence intensity (a.u.)
7,AAGCTGCGTCTTGCATGACAGCTTCAAGTTACACATGCTGCGGAGTCACCTAGTGCAG,3490 fluorescence intensity (a.u.)
8,GCCACGCTGTGGTAGGCCGCGCCGACGTGGGCGAATCCGCCGGAGTCACCTAGTGCAG,6340 fluorescence intensity (a.u.)
9,ACAAGCCAGGACCAGTAGGCCATGTATCTCTCCTAAAATTCGGAGTCACCTAGTGCAG,36000 fluorescence intensity (a.u.)
10,CCGCCGTCCGGTGACGTGGCCTTCCTCCTCTTCCCACCGCCGGAGTCACCTAGTGCAG,23400 fluorescence intensity (a.u.)
11,TTCCACAATCTTTAATCTACTGTCGTCAGCCGACATGTCACGGAGTCACCTAGTGCAG,5800 fluorescence intensity (a.u.)
12,GCAAGAGATCCGAGAAGAGCAACATAACCCACAGGCCGCTCGGAGTCACCTAGTGCAG,3720 fluorescence intensity (a.u.)
13,TAAAACAAGTCATAATAAAATAAATAGTAATTAAAATTCTCGGAGTCACCTAGTGCAG,29200 fluorescence intensity (a.u.)
14,GCGGCGTGGCGGTTTCCGGGCCAACGGCTGACATGTCGGCCGGAGTCACCTAGTGCAG,4930 fluorescence intensity (a.u.)
15,TGATGCCGCTGACGCCTGCTTTGTCAAGGACTCAAGGTCACGGAGTCACCTAGTGCAG,4020 fluorescence intensity (a.u.)
16,GAGGCAAAACTACTTATTCCATGACAACATCTTGGGCCATCGGAGTCACCTAGTGCAG,4200 fluorescence intensity (a.u.)
17,TCAACCGGATCAAGTAGGATATCCTTGTGAGTTGGCATCCCGGAGTCACCTAGTGCAG,3700 fluorescence intensity (a.u.)
18,ATGACTATAGATGGTACGTTGCTACATGCTACTACTTCTGCGGAGTCACCTAGTGCAG,36000 fluorescence intensity (a.u.)
19,GGACCCCACGCTGACTCAGCTGCCACGTTGGATGAAACCGCGGAGTCACCTAGTGCAG,21800 fluorescence intensity (a.u.)
20,GAACAGTGGTGGGCGCGGATGGCAGCACTGAGCGGCTCGGCGGAGTCACCTAGTGCAG,32000 fluorescence intensity (a.u.)
21,CCAACACGTGTCGTCTGTTGCCACGTTAACATCGCCGCAACGGAGTCACCTAGTGCAG,7330 fluorescence intensity (a.u.)

# Exported bar-delimited: part of the list above
row | Sequence | binding signal
8 | GCCACGCTGTGGTAGGCCGCGCCGACGTGGGCGAATCCGCCGGAGTCACCTAGTGCAG | 6340 fluorescence intensity (a.u.)
9 | ACAAGCCAGGACCAGTAGGCCATGTATCTCTCCTAAAATTCGGAGTCACCTAGTGCAG | 36000 fluorescence intensity (a.u.)

# Source: publication PMC7819943, “Rice protein-binding microarrays: a tool to detect cis-acting elements near promoter regions in rice”
